Reference: PubChem BioAssay AID504774 (Drosophila RNAi Screening Center, 2011)
Test: 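Knock-downs that shift viability of MMS-exposed cells relative to untreated ones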 (primary screen). Cell system: Drosophila Kc167 cells. Knock-down reagent: long dsRNA against Drosophila genes, about 0.25 µg dsRNA per well. Timing: about 6 days: 3 days knock-down, then 3 days with or without MMS. Conditions: methyl methanesulphonate 0.004% (w/v) for 3 days after knock-down. Measured: 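Viability in wells given MMS, read as ATP luminescence, normalised by quantiles plate by plate and averaged across replicates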. Reading the numbers: mean viability with MMS: higher = more surviving cells after MMS.
The deposit covers about 23,000 reagents; below is an unselected part of those with a known target gene and a result. 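Values are quantile-normalised luminescence on an arbitrary scale; higher means more cells surviving MMS.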 The numbers tell different reagents against one gene apart. Not all columns of the deposit are shown. Reagent sequences are not shown.

{"target": "SPARC", "dsRNA no.": 1, "mean viability with MMS": 3.52e6}
{"target": "hbn", "dsRNA no.": 1, "mean viability with MMS": 2.79e6}
{"target": "hbn", "dsRNA no.": 2, "mean viability with MMS": 3.54e6}
{"target": "hbn", "dsRNA no.": 3, "mean viability with MMS": 3.52e6}
{"target": "hbn", "dsRNA no.": 4, "mean viability with MMS": 3.48e6}
{"target": "CG14356", "dsRNA no.": 1, "mean viability with MMS": 3.50e6}
{"target": "Mpcp1", "dsRNA no.": 1, "mean viability with MMS": 3.73e6}
{"target": "CG13114", "dsRNA no.": 1, "mean viability with MMS": 3.70e6}
{"target": "yata", "dsRNA no.": 1, "mean viability with MMS": 3.46e6}
{"target": "wac", "dsRNA no.": 1, "mean viability with MMS": 3.50e6}
{"target": "tefu", "dsRNA no.": 1, "mean viability with MMS": 3.42e6}

Already shown: entries from further up.
{"target": "SPARC", "dsRNA no.": 1, "mean viability with MMS": 3.52e6}
{"target": "hbn", "dsRNA no.": 1, "mean viability with MMS": 2.79e6}
{"target": "hbn", "dsRNA no.": 2, "mean viability with MMS": 3.54e6}

The list goes on.
{"target": "alphaTub85E", "dsRNA no.": 1, "mean viability with MMS": 3.20e6}
{"target": "E(spl)m4-BFM", "dsRNA no.": 1, "mean viability with MMS": 3.62e6}
{"target": "CG14074", "dsRNA no.": 1, "mean viability with MMS": 3.33e6}
{"target": "CG11550", "dsRNA no.": 1, "mean viability with MMS": 3.75e6}
{"target": "PCNA", "dsRNA no.": 1, "mean viability with MMS": 3.30e6}
{"target": "BuGZ", "dsRNA no.": 1, "mean viability with MMS": 3.10e6}
{"target": "BuGZ", "dsRNA no.": 2, "mean viability with MMS": 3.48e6}
{"target": "CG17191", "dsRNA no.": 1, "mean viability with MMS": 3.58e6}
{"target": "CG3594", "dsRNA no.": 1, "mean viability with MMS": 2.84e6}
{"target": "CG3594", "dsRNA no.": 2, "mean viability with MMS": 3.44e6}
{"target": "Or19a", "dsRNA no.": 1, "mean viability with MMS": 3.53e6}
{"target": "Vps35", "dsRNA no.": 1, "mean viability with MMS": 3.50e6}
{"target": "CG18536", "dsRNA no.": 1, "mean viability with MMS": 3.70e6}
{"target": "CG34461", "dsRNA no.": 1, "mean viability with MMS": 3.48e6}
{"target": "Prx3", "dsRNA no.": 1, "mean viability with MMS": 3.65e6}
{"target": "Paip1", "dsRNA no.": 1, "mean viability with MMS": 3.33e6}
{"target": "su(f)", "dsRNA no.": 1, "mean viability with MMS": 3.40e6}
{"target": "CG12480", "dsRNA no.": 1, "mean viability with MMS": 3.80e6}
{"target": "enc", "dsRNA no.": 1, "mean viability with MMS": 3.45e6}
{"target": "Rga", "dsRNA no.": 1, "mean viability with MMS": 3.69e6}
{"target": "Crtp", "dsRNA no.": 1, "mean viability with MMS": 3.66e6}
{"target": "CG6028", "dsRNA no.": 1, "mean viability with MMS": 3.45e6}
{"target": "CG42366", "dsRNA no.": 1, "mean viability with MMS": 3.17e6}
{"target": "CG42366", "dsRNA no.": 2, "mean viability with MMS": 3.69e6}
